Assay results: PMC7519068
No constants are given. Whether binding was seen depends on the method and setting. Binding calls can cover weak binding; strength is not graded here. For part of these data: Sequences can lack the tags named with a protein. For part of these data: Binding seen in cells or lysates may run through a third protein.

Legend:
[1] = molecular target: T1, Put7-V5 (Ylr283w with a C-terminal V5 tag) (S. cerevisiae) (UniProt Q05867); test: native gel or EMSA; Blue-native PAGE (3–12% gradient Native Bis-Tris gel) of mitochondria solubilized in 1% digitonin, immunoblot with anti-V5; strains with or without PUT6/PUT7; cells also grown in ammonium sulfate, proline or glutamate
T1 sequence: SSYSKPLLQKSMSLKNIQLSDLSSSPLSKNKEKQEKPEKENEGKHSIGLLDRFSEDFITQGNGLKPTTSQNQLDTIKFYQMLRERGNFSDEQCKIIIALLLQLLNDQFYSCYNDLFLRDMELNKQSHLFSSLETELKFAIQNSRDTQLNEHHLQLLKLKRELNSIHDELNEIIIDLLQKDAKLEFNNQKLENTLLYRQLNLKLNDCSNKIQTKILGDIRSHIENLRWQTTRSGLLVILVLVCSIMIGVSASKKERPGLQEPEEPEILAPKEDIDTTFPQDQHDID

[2] = molecular target: T2, Put7-HA (Ylr283w with a C-terminal hemagglutinin tag) (S. cerevisiae) (UniProt Q05867); test: co-IP; 1 mg crude mitochondria solubilized in IP buffer (20 mM HEPES-KOH pH 7.4, 1 mM CaCl2, 100 mM NaCl, 1% digitonin, 10% glycerol), 4 °C; IP with anti-V5 or anti-HA on Dynabeads Protein G; immunoblot with anti-HA or anti-V5
T2 sequence: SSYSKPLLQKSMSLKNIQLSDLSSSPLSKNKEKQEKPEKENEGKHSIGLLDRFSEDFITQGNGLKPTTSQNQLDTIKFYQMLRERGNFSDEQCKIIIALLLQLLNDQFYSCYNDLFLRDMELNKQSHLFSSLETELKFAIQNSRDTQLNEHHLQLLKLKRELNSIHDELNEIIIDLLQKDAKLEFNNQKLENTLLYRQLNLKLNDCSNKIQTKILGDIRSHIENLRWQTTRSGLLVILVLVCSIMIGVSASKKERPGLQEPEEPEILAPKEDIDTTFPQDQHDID

[3] = molecular target: Put6-V5 (Fmp32 with a C-terminal V5 tag) (S. cerevisiae); test: native gel or EMSA; Blue-native PAGE (3–12% gradient Native Bis-Tris gel) of mitochondria solubilized in 1% digitonin, immunoblot with anti-V5; strains with or without PUT6/PUT7; cells also grown in ammonium sulfate, proline or glutamate

Put6 (Fmp32), endogenous
binding [1]: binds

Put6-V5 (Fmp32 with a C-terminal V5 tag) (S. cerevisiae)
binding [2]: binds

B1: Put7 (Ylr283w), endogenous (protein, UniProt Q05867 30-314)
chain: SSYSKPLLQKSMSLKNIQLSDLSSSPLSKNKEKQEKPEKENEGKHSIGLLDRFSEDFITQGNGLKPTTSQNQLDTIKFYQMLRERGNFSDEQCKIIIALLLQLLNDQFYSCYNDLFLRDMELNKQSHLFSSLETELKFAIQNSRDTQLNEHHLQLLKLKRELNSIHDELNEIIIDLLQKDAKLEFNNQKLENTLLYRQLNLKLNDCSNKIQTKILGDIRSHIENLRWQTTRSGLLVILVLVCSIMIGVSASKKERPGLQEPEEPEILAPKEDIDTTFPQDQHDID
binding [3]: binds
